Source: paper PMC3968024
No constants are given. Whether binding was seen depends on the method and setting. Binding calls can cover weak binding; strength is not graded here. Where a sequence is shown, tags or fusion partners need not be part of it. For some of these results: In cells and extracts the contact can be indirect.

The chains behind the UniProt entries cited, without tags or fusion partners. Where a name states a change or a piece, a line headed by the entry shows the natural chain unless it says otherwise.
UniProt Q6ZN44: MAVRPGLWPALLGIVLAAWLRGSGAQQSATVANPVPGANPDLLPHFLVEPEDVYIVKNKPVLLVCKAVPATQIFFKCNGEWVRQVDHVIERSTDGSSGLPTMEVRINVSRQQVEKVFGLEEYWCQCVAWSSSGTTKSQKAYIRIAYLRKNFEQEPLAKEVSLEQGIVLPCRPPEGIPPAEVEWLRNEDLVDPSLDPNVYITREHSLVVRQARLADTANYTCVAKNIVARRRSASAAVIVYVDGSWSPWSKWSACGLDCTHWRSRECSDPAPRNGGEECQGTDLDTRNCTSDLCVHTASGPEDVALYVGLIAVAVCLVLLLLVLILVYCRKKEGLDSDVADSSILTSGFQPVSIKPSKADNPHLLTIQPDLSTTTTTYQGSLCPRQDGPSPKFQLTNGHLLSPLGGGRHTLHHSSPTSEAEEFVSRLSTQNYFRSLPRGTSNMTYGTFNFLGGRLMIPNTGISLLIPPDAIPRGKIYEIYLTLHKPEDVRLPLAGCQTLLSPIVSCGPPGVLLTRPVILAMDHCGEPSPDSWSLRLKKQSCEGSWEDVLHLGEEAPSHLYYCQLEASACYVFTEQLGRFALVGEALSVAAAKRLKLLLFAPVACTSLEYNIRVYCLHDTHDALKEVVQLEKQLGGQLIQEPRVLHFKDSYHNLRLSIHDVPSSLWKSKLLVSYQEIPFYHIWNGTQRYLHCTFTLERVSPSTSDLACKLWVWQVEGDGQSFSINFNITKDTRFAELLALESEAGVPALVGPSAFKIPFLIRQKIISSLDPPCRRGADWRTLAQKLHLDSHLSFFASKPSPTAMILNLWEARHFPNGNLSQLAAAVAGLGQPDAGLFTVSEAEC

Columns and labels:
[1] = target: T1, HA-tagged full-length FANCC (UniProt Q00597); assay: co-IP; HEK293T transiently transfected with both proteins; lysis in 50 mM Tris-HCl, 150 mM NaCl, 1% Triton X-100; protein A-agarose beads; Western blotting; control IgG
T1 sequence: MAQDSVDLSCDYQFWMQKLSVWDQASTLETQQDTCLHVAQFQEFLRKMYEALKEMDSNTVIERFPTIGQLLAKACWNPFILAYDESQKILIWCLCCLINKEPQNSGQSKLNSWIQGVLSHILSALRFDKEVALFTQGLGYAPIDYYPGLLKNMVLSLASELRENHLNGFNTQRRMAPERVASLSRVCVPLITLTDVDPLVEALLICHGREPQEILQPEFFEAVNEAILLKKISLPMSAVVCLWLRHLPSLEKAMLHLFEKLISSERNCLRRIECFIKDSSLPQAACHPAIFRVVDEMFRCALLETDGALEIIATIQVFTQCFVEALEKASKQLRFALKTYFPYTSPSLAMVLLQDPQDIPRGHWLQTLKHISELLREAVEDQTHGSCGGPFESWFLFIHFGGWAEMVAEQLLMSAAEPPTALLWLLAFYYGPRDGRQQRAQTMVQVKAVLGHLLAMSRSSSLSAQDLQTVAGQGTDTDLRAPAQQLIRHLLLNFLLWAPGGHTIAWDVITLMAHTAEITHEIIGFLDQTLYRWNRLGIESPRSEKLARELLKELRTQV

[2] = target: T2, FANCC N-terminal caspase cleavage fragment FANCC^1-306 (yeast two-hybrid fusion) (UniProt Q00597); assay: two-hybrid; directed assays; UNC5A and FANCC constructs in pGBKT7 or pGADT7 co-transformed into AH109; growth on stringent nutritional selection; at least three independent transformations
T2 sequence: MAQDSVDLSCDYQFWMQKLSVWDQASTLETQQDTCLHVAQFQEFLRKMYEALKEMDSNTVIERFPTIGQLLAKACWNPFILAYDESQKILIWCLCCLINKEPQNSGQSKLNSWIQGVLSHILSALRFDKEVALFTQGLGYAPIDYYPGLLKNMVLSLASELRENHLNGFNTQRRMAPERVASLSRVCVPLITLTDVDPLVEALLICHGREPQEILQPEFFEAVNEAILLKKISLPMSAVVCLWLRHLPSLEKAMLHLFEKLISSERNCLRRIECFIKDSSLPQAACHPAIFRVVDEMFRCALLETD

[3] = target: T3, FANCC C-terminal caspase cleavage fragment FANCC^307-558 (yeast two-hybrid fusion) (UniProt Q00597); assay: as above
T3 sequence: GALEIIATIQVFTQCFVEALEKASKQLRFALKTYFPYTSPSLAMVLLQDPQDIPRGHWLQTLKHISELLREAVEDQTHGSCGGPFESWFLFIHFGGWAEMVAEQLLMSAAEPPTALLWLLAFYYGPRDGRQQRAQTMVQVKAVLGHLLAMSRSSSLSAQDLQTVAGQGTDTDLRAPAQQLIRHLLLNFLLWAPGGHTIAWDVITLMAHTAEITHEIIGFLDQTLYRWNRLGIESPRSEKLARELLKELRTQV

[4] = target: T4, FANCC^307-558-L554P (yeast two-hybrid fusion) (UniProt Q00597); assay: as above
T4 sequence: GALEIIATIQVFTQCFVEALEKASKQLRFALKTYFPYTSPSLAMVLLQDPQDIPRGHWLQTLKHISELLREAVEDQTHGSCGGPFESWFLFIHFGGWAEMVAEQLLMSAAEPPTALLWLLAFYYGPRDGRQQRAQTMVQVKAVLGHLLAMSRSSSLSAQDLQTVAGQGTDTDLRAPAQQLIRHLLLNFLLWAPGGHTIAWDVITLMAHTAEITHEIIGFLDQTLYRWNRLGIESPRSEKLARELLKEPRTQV

[5] = target: T5, full-length FANCC (yeast two-hybrid fusion) (UniProt Q00597); assay: as above
T5 sequence: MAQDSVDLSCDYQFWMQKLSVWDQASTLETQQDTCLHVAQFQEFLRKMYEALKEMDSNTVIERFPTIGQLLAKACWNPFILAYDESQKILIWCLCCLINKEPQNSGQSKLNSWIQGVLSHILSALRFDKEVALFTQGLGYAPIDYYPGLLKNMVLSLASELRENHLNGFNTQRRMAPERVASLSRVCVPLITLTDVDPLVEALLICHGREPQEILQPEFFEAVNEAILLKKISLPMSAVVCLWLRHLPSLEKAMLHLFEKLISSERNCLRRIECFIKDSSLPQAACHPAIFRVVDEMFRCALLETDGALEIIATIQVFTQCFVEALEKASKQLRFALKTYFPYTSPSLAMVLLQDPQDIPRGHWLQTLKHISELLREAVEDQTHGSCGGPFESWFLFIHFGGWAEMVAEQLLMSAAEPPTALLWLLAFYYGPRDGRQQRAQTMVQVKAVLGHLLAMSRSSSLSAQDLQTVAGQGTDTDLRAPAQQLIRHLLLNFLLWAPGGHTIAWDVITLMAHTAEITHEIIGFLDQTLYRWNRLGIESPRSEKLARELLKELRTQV

[6] = target: Xpress-tagged death-domain deletion mutant UNC5A (UNC5A^ΔDD) (human); assay: co-IP; HEK293T transiently transfected with both proteins; lysis in 50 mM Tris-HCl, 150 mM NaCl, 1% Triton X-100; protein A-agarose beads; Western blotting; control IgG

Molecule: Xpress-tagged death-domain deletion mutant UNC5A (UNC5A^ΔDD) (human) (domain or fragment)
- binding [1]: binds weakly

Molecule: UNC5A C-terminus part containing the death domain UNC5A^DD (yeast two-hybrid fusion) (from UniProt Q6ZN44) (domain or fragment)
- binding [2]: binds
- binding [3]: binds
- binding [4]: binds
- binding [5]: binds

Molecule: UNC5A death domain deletion mutant UNC5A^ΔDD (yeast two-hybrid fusion) (human) (domain or fragment)
- binding [2]: binds
- binding [3]: no binding
- binding [5]: no binding

B1: HA-tagged full-length FANCC (protein, UniProt Q00597 1-558)
chain: MAQDSVDLSCDYQFWMQKLSVWDQASTLETQQDTCLHVAQFQEFLRKMYEALKEMDSNTVIERFPTIGQLLAKACWNPFILAYDESQKILIWCLCCLINKEPQNSGQSKLNSWIQGVLSHILSALRFDKEVALFTQGLGYAPIDYYPGLLKNMVLSLASELRENHLNGFNTQRRMAPERVASLSRVCVPLITLTDVDPLVEALLICHGREPQEILQPEFFEAVNEAILLKKISLPMSAVVCLWLRHLPSLEKAMLHLFEKLISSERNCLRRIECFIKDSSLPQAACHPAIFRVVDEMFRCALLETDGALEIIATIQVFTQCFVEALEKASKQLRFALKTYFPYTSPSLAMVLLQDPQDIPRGHWLQTLKHISELLREAVEDQTHGSCGGPFESWFLFIHFGGWAEMVAEQLLMSAAEPPTALLWLLAFYYGPRDGRQQRAQTMVQVKAVLGHLLAMSRSSSLSAQDLQTVAGQGTDTDLRAPAQQLIRHLLLNFLLWAPGGHTIAWDVITLMAHTAEITHEIIGFLDQTLYRWNRLGIESPRSEKLARELLKELRTQV
- binding [6]: binds weakly

B2: HA-tagged full-length FANCC harboring the L554P mutation (HA-FANCC^L554P) (protein, UniProt Q00597 1-558)
chain: MAQDSVDLSCDYQFWMQKLSVWDQASTLETQQDTCLHVAQFQEFLRKMYEALKEMDSNTVIERFPTIGQLLAKACWNPFILAYDESQKILIWCLCCLINKEPQNSGQSKLNSWIQGVLSHILSALRFDKEVALFTQGLGYAPIDYYPGLLKNMVLSLASELRENHLNGFNTQRRMAPERVASLSRVCVPLITLTDVDPLVEALLICHGREPQEILQPEFFEAVNEAILLKKISLPMSAVVCLWLRHLPSLEKAMLHLFEKLISSERNCLRRIECFIKDSSLPQAACHPAIFRVVDEMFRCALLETDGALEIIATIQVFTQCFVEALEKASKQLRFALKTYFPYTSPSLAMVLLQDPQDIPRGHWLQTLKHISELLREAVEDQTHGSCGGPFESWFLFIHFGGWAEMVAEQLLMSAAEPPTALLWLLAFYYGPRDGRQQRAQTMVQVKAVLGHLLAMSRSSSLSAQDLQTVAGQGTDTDLRAPAQQLIRHLLLNFLLWAPGGHTIAWDVITLMAHTAEITHEIIGFLDQTLYRWNRLGIESPRSEKLARELLKEPRTQV
- binding [6]: binds weakly
